These are yes or no findings as the source states them, for the method shown. Some entries that bind do so weakly or less than the wild type.
Columns and labels:
[1] = molecular target: ROD–Zwilch–ZW10 (RZZ) complex (UniProt P50748); assay: SEC; Superose 6 5/150; RZZ 2 µM, pre-farnesylated mCh-Spindly construct 6 µM; both purified
[2] = molecular target: Dynactin pointed-end (PE) capping complex (p25, p27, p62, Arp11) (UniProt Q9NZ32); assay: SEC; PE complex 3 µM mixed with Spindly construct 8 µM (Fig. 3 F: 4 µM and 10 µM), at least 1 h on ice; Superdex 200 5/150 (named in the legend of Fig. 5); 4°C, Spindly buffer (50 mM Hepes pH 8.0, 250 mM NaCl, 2 mM TCEP); fractions on SDS-PAGE; both purified
[3] = molecular target: p25-6His (PE complex plasmid) (UniProt Q9BTE1); assay: co-purification (HisTrap, anion exchange, SEC); four PE subunits co-expressed in insect cells; captured through p25-6His on HisTrap, Resource Q, Superdex 200 16/60; SDS-PAGE of the gel-filtration peak

Sequences of proteins named here, by UniProt entry; tags and fusion partners are left off. A change or cut given only in a name is not applied to a line headed by its entry.
UniProt P50748: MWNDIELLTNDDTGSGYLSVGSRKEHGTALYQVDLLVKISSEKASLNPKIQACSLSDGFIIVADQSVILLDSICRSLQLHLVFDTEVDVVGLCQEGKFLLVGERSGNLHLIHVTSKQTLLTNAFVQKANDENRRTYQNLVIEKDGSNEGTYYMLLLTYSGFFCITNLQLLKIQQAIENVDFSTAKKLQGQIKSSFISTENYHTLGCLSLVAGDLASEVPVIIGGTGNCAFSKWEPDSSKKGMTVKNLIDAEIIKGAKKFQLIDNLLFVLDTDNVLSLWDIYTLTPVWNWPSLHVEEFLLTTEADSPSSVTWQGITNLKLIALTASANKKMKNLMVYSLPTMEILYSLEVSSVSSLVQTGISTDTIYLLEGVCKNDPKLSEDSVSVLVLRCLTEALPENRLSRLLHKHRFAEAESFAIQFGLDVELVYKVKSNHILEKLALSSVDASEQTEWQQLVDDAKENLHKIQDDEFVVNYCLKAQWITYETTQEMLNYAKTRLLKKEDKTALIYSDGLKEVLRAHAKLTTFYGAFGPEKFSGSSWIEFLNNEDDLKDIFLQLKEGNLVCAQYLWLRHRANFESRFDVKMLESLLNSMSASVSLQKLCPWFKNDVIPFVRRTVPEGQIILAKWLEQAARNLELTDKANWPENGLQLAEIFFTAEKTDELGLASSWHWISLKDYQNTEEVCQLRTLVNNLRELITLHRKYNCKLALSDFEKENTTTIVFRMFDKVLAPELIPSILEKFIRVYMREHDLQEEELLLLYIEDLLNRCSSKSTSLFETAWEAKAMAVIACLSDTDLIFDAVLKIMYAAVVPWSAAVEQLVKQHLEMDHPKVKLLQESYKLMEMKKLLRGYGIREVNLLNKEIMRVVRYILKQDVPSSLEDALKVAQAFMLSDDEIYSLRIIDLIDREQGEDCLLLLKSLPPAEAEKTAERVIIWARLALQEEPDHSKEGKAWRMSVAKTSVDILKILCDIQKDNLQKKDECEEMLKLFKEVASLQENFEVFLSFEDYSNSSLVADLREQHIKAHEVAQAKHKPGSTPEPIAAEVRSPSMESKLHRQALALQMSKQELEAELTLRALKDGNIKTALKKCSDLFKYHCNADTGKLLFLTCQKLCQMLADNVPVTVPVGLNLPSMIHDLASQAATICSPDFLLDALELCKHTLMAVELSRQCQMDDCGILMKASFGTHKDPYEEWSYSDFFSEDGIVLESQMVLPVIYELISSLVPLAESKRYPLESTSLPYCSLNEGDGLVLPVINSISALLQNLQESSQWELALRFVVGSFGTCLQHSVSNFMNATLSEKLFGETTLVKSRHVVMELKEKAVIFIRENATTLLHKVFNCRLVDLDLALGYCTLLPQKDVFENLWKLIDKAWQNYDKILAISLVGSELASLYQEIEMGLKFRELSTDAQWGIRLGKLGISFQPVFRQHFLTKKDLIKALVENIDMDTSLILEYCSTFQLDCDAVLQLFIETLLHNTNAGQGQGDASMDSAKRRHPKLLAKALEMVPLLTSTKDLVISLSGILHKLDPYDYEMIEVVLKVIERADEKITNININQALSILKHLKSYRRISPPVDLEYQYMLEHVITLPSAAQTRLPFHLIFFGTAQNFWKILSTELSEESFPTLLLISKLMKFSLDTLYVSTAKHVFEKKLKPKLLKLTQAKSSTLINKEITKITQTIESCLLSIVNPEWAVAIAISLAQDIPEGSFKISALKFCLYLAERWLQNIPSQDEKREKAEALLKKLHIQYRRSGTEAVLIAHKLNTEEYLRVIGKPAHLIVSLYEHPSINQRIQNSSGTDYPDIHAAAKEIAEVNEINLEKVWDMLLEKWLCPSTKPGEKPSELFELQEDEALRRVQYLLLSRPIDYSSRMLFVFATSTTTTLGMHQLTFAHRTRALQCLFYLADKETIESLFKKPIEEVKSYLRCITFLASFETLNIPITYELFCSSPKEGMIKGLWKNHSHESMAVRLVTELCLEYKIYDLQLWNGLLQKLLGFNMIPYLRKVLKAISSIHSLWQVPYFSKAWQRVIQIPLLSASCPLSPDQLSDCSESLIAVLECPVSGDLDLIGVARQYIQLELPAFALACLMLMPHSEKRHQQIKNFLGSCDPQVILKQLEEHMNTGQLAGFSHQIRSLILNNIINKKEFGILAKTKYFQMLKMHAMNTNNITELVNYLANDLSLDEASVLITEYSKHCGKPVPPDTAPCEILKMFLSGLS
UniProt Q8TD16: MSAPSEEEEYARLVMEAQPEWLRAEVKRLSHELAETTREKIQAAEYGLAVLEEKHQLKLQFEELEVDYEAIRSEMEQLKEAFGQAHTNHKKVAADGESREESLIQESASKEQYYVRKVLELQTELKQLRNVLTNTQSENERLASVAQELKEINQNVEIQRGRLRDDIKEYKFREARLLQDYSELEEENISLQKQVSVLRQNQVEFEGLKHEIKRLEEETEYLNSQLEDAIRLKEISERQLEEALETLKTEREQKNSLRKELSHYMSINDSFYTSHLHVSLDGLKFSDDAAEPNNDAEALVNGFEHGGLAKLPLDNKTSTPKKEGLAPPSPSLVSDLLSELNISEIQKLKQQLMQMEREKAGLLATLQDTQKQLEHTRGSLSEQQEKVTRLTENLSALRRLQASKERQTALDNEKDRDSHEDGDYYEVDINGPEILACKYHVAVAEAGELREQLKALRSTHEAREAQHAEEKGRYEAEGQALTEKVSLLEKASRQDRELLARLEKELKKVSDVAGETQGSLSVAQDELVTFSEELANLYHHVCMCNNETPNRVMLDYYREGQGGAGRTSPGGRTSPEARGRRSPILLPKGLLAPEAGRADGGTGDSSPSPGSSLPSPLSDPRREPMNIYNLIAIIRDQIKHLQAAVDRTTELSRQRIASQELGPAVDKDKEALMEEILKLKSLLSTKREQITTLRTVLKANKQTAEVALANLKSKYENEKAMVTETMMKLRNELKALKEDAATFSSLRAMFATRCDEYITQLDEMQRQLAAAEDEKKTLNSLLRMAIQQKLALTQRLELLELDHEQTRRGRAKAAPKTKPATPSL

Substance	binding [3]	further results
pre-farnesylated ^mChSpindly^Chimera (from UniProt Q8TD16 1-292; Q96EA4 251-605)		binding [1]: binds
^mChSpindly^Chimera (mCh-tagged BICD2-Spindly chimeric construct) (from UniProt Q8TD16 1-292; Q96EA4 251-605)		binding [2]: binds
p27 (PE complex plasmid) (from UniProt O00399 1-190)	binds	
Arp11 (PE complex plasmid) (from UniProt Q9NZ32 1-417)	binds	

Source: publication PMC9481740
